# Cleaved PARP in drug-treated melanoma cells

Values as published with doi:10.1371/journal.pone.0140310, rounded.

Drugs:
JZL184, 5 µM: O=C(Oc1ccc([N+](=O)[O-])cc1)N1CCC(C(O)(c2ccc3c(c2)OCO3)c2ccc3c(c2)OCO3)CC1
vincristine, 0.0005 µM: CC[C@]1(O)C[C@H]2CN(CCc3c([nH]c4ccccc34)[C@@](C(=O)OC)(c3cc4c(cc3OC)N(C=O)[C@H]3[C@@](O)(C(=O)OC)[C@H](OC(C)=O)[C@]5(CC)C=CCN6CC[C@]43[C@@H]65)C2)C1
MK-1775, 0.1 µM: C=CCn1c(=O)c2cnc(Nc3ccc(N4CCN(C)CC4)cc3)nc2n1-c1cccc(C(C)(C)O)n1
crizotinib, 1 µM: C[C@@H](Oc1cc(-c2cnn(C3CCNCC3)c2)cnc1N)c1c(Cl)ccc(F)c1Cl
FK866, 0.05 µM: O=C(/C=C/c1cccnc1)NCCCCC1CCN(C(=O)c2ccccc2)CC1
dovitinib, 0.5 µM: CN1CCN(c2ccc3nc(-c4c(N)c5c(F)cccc5[nH]c4=O)[nH]c3c2)CC1
indole-3-carbinol, 4 µM: OCc1c[nH]c2ccccc12
selumetinib, 0.075 µM: Cn1cnc2c(F)c(Nc3ccc(Br)cc3Cl)c(C(=O)NOCCO)cc21
tipifarnib, 0.05 µM: Cn1cncc1[C@@](N)(c1ccc(Cl)cc1)c1ccc2c(c1)c(-c1cccc(Cl)c1)cc(=O)n2C
GSK0660, 5 µM: COC(=O)c1sccc1S(=O)(=O)Nc1ccc(Nc2ccccc2)cc1OC
NVP-TAE684, 0.4 µM: COc1cc(N2CCC(N3CCN(C)CC3)CC2)ccc1Nc1ncc(Cl)c(Nc2ccccc2S(=O)(=O)C(C)C)n1
ABT-263, 2 µM: CC1(C)CCC(c2ccc(Cl)cc2)=C(CN2CCN(c3ccc(C(=O)NS(=O)(=O)c4ccc(N[C@H](CCN5CCOCC5)CSc5ccccc5)c(S(=O)(=O)C(F)(F)F)c4)cc3)CC2)C1
XAV939, 10 µM: Oc1nc(-c2ccc(C(F)(F)F)cc2)nc2c1CSCC2
PD173074, 0.5 µM: CCN(CC)CCCCNc1ncc2cc(-c3cc(OC)cc(OC)c3)c(NC(=O)NC(C)(C)C)nc2n1
SNS-314, 0.004 µM: O=C(Nc1cccc(Cl)c1)Nc1ncc(CCNc2ncnc3ccsc23)s1
midostaurin, 0.4 µM: CO[C@@H]1[C@H](N(C)C(=O)c2ccccc2)C[C@H]2O[C@]1(C)n1c3ccccc3c3c4c(c5c6ccccc6n2c5c31)C(=O)NC4
pazopanib, 2 µM: Cc1ccc(Nc2nccc(N(C)c3ccc4c(C)n(C)nc4c3)n2)cc1S(N)(=O)=O
KU-55933, 5 µM: O=c1cc(-c2cccc3c2Sc2ccccc2S3)oc(N2CCOCC2)c1
bexarotene, 10 µM: C=C(c1ccc(C(=O)O)cc1)c1cc2c(cc1C)C(C)(C)CCC2(C)C
embelin, 6 µM: CCCCCCCCCCCC1=C(O)C(=O)C=C(O)C1=O
tamatinib, 2 µM: COc1cc(Nc2ncc(F)c(Nc3ccc4c(n3)NC(=O)C(C)(C)O4)n2)cc(OC)c1OC
GW9662, 10 µM: O=C(Nc1ccccc1)c1cc([N+](=O)[O-])ccc1Cl
CP-690550, 5 µM: C[C@@H]1CCN(C(=O)CC#N)C[C@@H]1N(C)c1ncnc2[nH]ccc12

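The test systems are human melanoma cell lines, treated with one drug for 72 h and then stained and imaged. Each value is the cleaved-PARP-positive fraction of nuclei relative to DMSO-treated wells, in %, so that 100 equals the control and higher values mean more apoptosis. Every drug was used at one fixed concentration, the higher of two screened. The file gives one value for each drug and line, without errors, so small differences may be noise. The marker varies much from line to line, for technical or biological reasons.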
This is part of the screen, not chosen by result.

SNS-314 gave A375: 143; WM115: 189; COLO 792: 125; MeWo: 192; RPMI-7951: 150; COLO 800: 104; IST-MEL1: 336; C32: 65.0. KU-55933 gave A375: 112; WM115: 75.7; COLO 792: 227; MeWo: 97.1; RPMI-7951: 79.2; COLO 800: 242; IST-MEL1: 48.3; C32: 72.7. With tamatinib the screen read A375: 102; WM115: 72.9; COLO 792: 163; MeWo: 91.5; RPMI-7951: 87.5; COLO 800: 88.9; IST-MEL1: 77.2; C32: 126. Results for midostaurin are A375: 112; WM115: 647; COLO 792: 140; MeWo: 150; RPMI-7951: 116; COLO 800: 230; IST-MEL1: 199; C32: 172. embelin gave A375: 123; WM115: 99.1; COLO 792: 103; MeWo: 70.6; RPMI-7951: 102; COLO 800: 93.1; IST-MEL1: 130; C32: 76.1. Results for MK-1775 are A375: 126; WM115: 88.0; COLO 792: 69.9; MeWo: 112; RPMI-7951: 140; COLO 800: 70.6; IST-MEL1: 23.6; C32: 82.7.

For JZL184 the values were A375: 112; WM115: 195; COLO 792: 25.9; MeWo: 119; RPMI-7951: 138; COLO 800: 84.3; IST-MEL1: 144; C32: 70.7. For selumetinib the values were A375: 161; WM115: 59.7; COLO 792: 135; MeWo: 132; RPMI-7951: 101; COLO 800: 84.8; IST-MEL1: 160; C32: 187. For XAV939 the values were A375: 102; WM115: 121; COLO 792: 116; MeWo: 48.0; RPMI-7951: 61.6; COLO 800: 124; IST-MEL1: 44.7; C32: 90.4. Results for vincristine are A375: 174; WM115: 68.5; COLO 792: 121; MeWo: 14.6; RPMI-7951: 192; COLO 800: 94.1; IST-MEL1: 88.7; C32: 30.2. For pazopanib the values were A375: 116; WM115: 126; COLO 792: 221; MeWo: 77.5; RPMI-7951: 190; COLO 800: 53.4; IST-MEL1: 55.1; C32: 121. FK866 gave A375: 138; WM115: 75.2; COLO 792: 883; MeWo: 76.2; RPMI-7951: 30.5; COLO 800: 437; IST-MEL1: 89.5; C32: 384.

For PD173074 the values were A375: 58.1; WM115: 110; COLO 792: 110; MeWo: 17.3; RPMI-7951: 137; COLO 800: 124; IST-MEL1: 30.6; C32: 76.2. For NVP-TAE684 the values were A375: 70.7; WM115: 273; COLO 792: 95.6; MeWo: 114; RPMI-7951: 82.4; COLO 800: 193; IST-MEL1: 138; C32: 87.9. For indole-3-carbinol the values were A375: 76.4; WM115: 85.4; COLO 792: 132; MeWo: 64.4; RPMI-7951: 36.3; COLO 800: 188; IST-MEL1: 63.8; C32: 72.5. bexarotene gave A375: 121; WM115: 44.7; COLO 792: 67.2; MeWo: 69.7; RPMI-7951: 28.1; COLO 800: 123; IST-MEL1: 139; C32: 175. Results for CP-690550 are A375: 43.1; WM115: 41.5; COLO 792: 51.5; MeWo: 140; RPMI-7951: 26.4; COLO 800: 57.7; IST-MEL1: 35.1; C32: 73.2. For ABT-263 the values were A375: 655; WM115: 116; COLO 792: 1310; MeWo: 238; RPMI-7951: 240; COLO 800: 308; IST-MEL1: 80.7; C32: 215.

For crizotinib the values were A375: 94.7; WM115: 70.5; COLO 792: 124; MeWo: 161; RPMI-7951: 33.8; COLO 800: 100; IST-MEL1: 49.2; C32: 118. For tipifarnib the values were A375: 88.6; WM115: 60.0; COLO 792: 152; MeWo: 145; RPMI-7951: 169; COLO 800: 259; IST-MEL1: 144; C32: 82.8. dovitinib gave A375: 87.9; WM115: 55.1; COLO 792: 50.5; MeWo: 306; RPMI-7951: 63.0; COLO 800: 66.5; IST-MEL1: 143; C32: 145. For GW9662 the values were A375: 77.8; WM115: 170; COLO 792: 118; MeWo: 95.3; RPMI-7951: 185; COLO 800: 74.3; IST-MEL1: 100; C32: 85.8. With GSK0660 the screen read A375: 130; WM115: 74.0; COLO 792: 64.9; MeWo: 51.1; RPMI-7951: 166; COLO 800: 182; IST-MEL1: 257; C32: 77.3.

2 of the entries, repeated:

* NVP-TAE684 : A375: 70.7; WM115: 273; COLO 792: 95.6; MeWo: 114; RPMI-7951: 82.4; COLO 800: 193; IST-MEL1: 138; C32: 87.9
* vincristine : A375: 174; WM115: 68.5; COLO 792: 121; MeWo: 14.6; RPMI-7951: 192; COLO 800: 94.1; IST-MEL1: 88.7; C32: 30.2